Results are given in words; binding and its absence hold for the method and conditions named. In cells and extracts the contact can be indirect.
B1: Wnt2 (ligand, UniProt P09544 26-360)
chain: SWWYMRATGGSSRVMCDNVPGLVSSQRQLCHRHPDVMRAISQGVAEWTAECQHQFRQHRWNCNTLDRDHSLFGRVLLRSSRESAFVYAISSAGVVFAITRACSQGEVKSCSCDPKKMGSAKDSKGIFDWGGCSDNIDYGIKFARAFVDAKERKGKDARALMNLHNNRAGRKAVKRFLKQECKCHGVSGSCTLRTCWLAMADFRKTGDYLWRKYNGAIQVVMNQDGTGFTVANERFKKPTKNDLVYFENSPDYCIRDREAGSLGTAGRVCNLTSRGMDSCEVMCCGRGYDTSHVTRMTKCGCKFHWCCAVRCQDCLEALDVHTCKAPKNADWTTAT
B2: Frizzled-9 (receptor, UniProt O00144 23-591)
chain: LEIGRFDPERGRGAAPCQAVEIPMCRGIGYNLTRMPNLLGHTSQGEAAAELAEFAPLVQYGCHSHLRFFLCSLYAPMCTDQVSTPIPACRPMCEQARLRCAPIMEQFNFGWPDSLDCARLPTRNDPHALCMEAPENATAGPAEPHKGLGMLPVAPRPARPPGDLGPGAGGSGTCENPEKFQYVEKSRSCAPRCGPGVEVFWSRRDKDFALVWMAVWSALCFFSTAFTVLTFLLEPHRFQYPERPIIFLSMCYNVYSLAFLIRAVAGAQSVACDQEAGALYVIQEGLENTGCTLVFLLLYYFGMASSLWWVVLTLTWFLAAGKKWGHEAIEAHGSYFHMAAWGLPALKTIVILTLRKVAGDELTGLCYVASTDAAALTGFVLVPLSGYLVLGSSFLLTGFVALFHIRKIMKTGGTNTEKLEKLMVKIGVFSILYTVPATCVIVCYVYERLNMDFWRLRATEQPCAAAAGPGGRRDCSLPGGSVPTVAVFMLKIFMSLVVGITSGVWVWSSKTFQTWQSLCYRKIAAGRARAKACRAPGSYGRGTHCHYKAPTVVLHMTKTDPSLENPTHL

Chains of the proteins cited; added tags and fusions are not shown.
UniProt P01100: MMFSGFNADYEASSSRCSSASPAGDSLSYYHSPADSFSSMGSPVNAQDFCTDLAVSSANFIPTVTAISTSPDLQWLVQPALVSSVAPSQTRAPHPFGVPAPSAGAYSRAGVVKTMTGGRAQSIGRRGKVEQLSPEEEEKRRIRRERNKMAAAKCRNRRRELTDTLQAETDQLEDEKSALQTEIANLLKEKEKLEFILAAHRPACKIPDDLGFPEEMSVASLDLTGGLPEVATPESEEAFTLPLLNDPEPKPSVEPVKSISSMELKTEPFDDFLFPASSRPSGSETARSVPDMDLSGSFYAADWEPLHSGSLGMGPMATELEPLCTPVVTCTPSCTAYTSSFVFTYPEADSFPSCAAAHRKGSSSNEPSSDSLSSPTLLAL

Target: c-Fos (human (endogenous in MG63)) (UniProt P01100)
Test: co-IP; MG63 cell lysate incubated with anti-c-Fos antibody (Cell Signaling) and protein A agarose beads (Co-IP Kit, Thermo Scientific) with protease inhibitor cocktail; input, Co-IP and flow fractions blotted for Wnt2 and Fzd9

Row | Binder | binding
1 | B1 | no binding
2 | B2 | no binding

Reference: PMC5493424
